## Results of single-concentration screens

Source: ChEMBL document CHEMBL3988442, “University of Dundee, Small-Polar-MMV Screening Library” (2021).

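Whole-parasite assay of Trypanosoma brucei over 72 hours; the read-out is not stated. Concentration: 30 µM. Direction is inferred from retests: higher values go with stronger inhibition. Values scatter widely below zero; nearly all retest evidence comes from the higher of the two concentrations used. About 64,000 compounds were tested under these conditions; 1.5% (about 940) showed 50% or more at least once.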

Values are the deposited “Percent Effect”, in %.
The record does not define 0% and 100%; most values in the screen are far below 50% and negative numbers occur (in some assays of this library far below -100).
Compounds were drawn at random from those tested, without regard to their results.

| # | SMILES | percent effect |
|---|---|---|
| 1 | `CC(C)(O)CCc1ccc(C(=O)N2CCN(CC3CCCC3)CC2)cc1` | -12.31 |
| 2 | `CC(C)(C)CN1CCCC(O)(CN2CCc3[nH]ncc3C2)C1=O` (stereo not drawn) | -25.03 |
| 3 | `COc1cc(C(=O)Nc2cn[nH]c2)ccc1C` | 12.59 |
| 4 | `CCOc1ncccc1C(=O)NC1CC(=O)N(CC(F)(F)F)C1` (stereo not drawn) | -39.2 |
| 5 | `COC(=O)N1CCCCC1C(=O)N1CCN(c2cccnc2)CC1` (stereo not drawn) | -8.398 |
| 6 | `O=C(Nc1ccc(Cl)cn1)C1CCN(CCc2ccccn2)CC1` | -9.957 |
| 7 | `COc1cnc(N2C[C@@H](CN3CCOCC3)[C@@H](CO)C2)nc1` | -22.01 |
| 8 | `CC(C)c1nc(CSc2nnc(Cn3cncn3)o2)cs1` | 10.47 |
| 9 | `CCCc1cc(C(=O)N(C)Cc2cccc3cnccc23)n(C)n1` | -34.5 |
| 10 | `CN1CCN(c2ncccn2)CC12CCC(=O)N(CC1CC1)CC2` (stereo not drawn) | -30.23 |
| 11 | `Cc1nnc(NC(=O)CSCc2cc(=O)n3ccccc3n2)s1` | 3.878 |
| 12 | `Cn1c2c(c(=O)n1C)CN(C(=O)c1ccncc1F)CCC2` | 4.672 |
| 13 | `CCCS(=O)(=O)N1CCN(c2cc(-n3ccnc3)nc(C)n2)CC1` | -36.56 |
| 14 | `O=C(O)C(F)(F)F.O=C(O)C(F)(F)F.O=c1ccc2c(n1Cc1cccnc1)CCN(C1CCOC1)CC2` (stereo not drawn) | -31.32 |
| 15 | `COc1ccc(N2CCCC3(C2)CN(c2nncs2)CCO3)cc1` (stereo not drawn) | -86.37 |
| 16 | `[H][C@@]12CCN(CC3CCOCC3)[C@@]1([H])CCN2C(=O)c1ccc(C)nc1` | -21.82 |
| 17 | `CS(=O)(=O)CCCC(=O)Nc1cc(Cl)c(Cl)cn1` | 15.88 |
| 18 | `O=C(O)C(F)(F)F.O=c1ccc2c(n1CC1CC1)CCC(NCc1cccs1)C2` (stereo not drawn) | -4.675 |
| 19 | `[H][C@@]12COC[C@]1(COCC(=O)N1CCCC1)CN(S(C)(=O)=O)C2` | -50.07 |
| 20 | `O=C(O)C(F)(F)F.[H][C@@]12COC[C@]1(CNC(=O)CC1CC1)CN(c1ncc(F)cn1)C2` | -30.3 |
| 21 | `COc1ccc(CN2CCC3(CCCN(C)C3=O)C2)c(OC)c1C` (stereo not drawn) | 8.488 |
| 22 | `CC(C)(C)NC(=O)c1nn(C2CCS(=O)(=O)C2)c2c1CCCC2` (stereo not drawn) | -4.692 |
| 23 | `CNc1ncc(C(=O)N2CCOC(C(=O)N3CCCCCC3)C2)cn1` (stereo not drawn) | -4.212 |
| 24 | `Cc1ccc(C(=O)NCCS(=O)(=O)Cc2ccccc2)c(C)c1` | -27.58 |
| 25 | `Cc1ccnc(NC(=O)c2c(C)oc(C)c2C)c1` | -73.38 |
| 26 | `CC/C=C(/C)C(=O)NCc1ccnc(OC2CCOCC2)c1` | -4.207 |
| 27 | `Cc1cn2c(CN(C)C(=O)c3ncoc3C)c(C)nc2s1` | 4.181 |
| 28 | `O=C(Nc1cccn(CC(F)(F)F)c1=O)c1ccncc1F` | -3.894 |
| 29 | `COc1cccc2c1OCC(CNC(=O)Cc1cnccn1)C2` (stereo not drawn) | -206.5 |
| 30 | `COC[C@]1(O)CCN(C2CCN(c3ccc(F)c(F)c3)CC2)CC1(C)C` | -31.31 |
| 31 | `O=C(OC1CCC1)c1ncccc1OCC(F)(F)F` | -34.95 |
| 32 | `Cc1nc(-c2ccoc2)n(CC(=O)N(C)CC(C)C)c1C` | 21.8 |
| 33 | `O=C(c1cnn2c(-c3ccco3)ccnc12)N1CCCCCC1` | -4.029 |
| 34 | `COCc1cccc(NS(=O)(=O)c2cc(C(=O)O)cs2)c1` | -17.21 |
| 35 | `Cc1cnn(CCNCC(=O)NCC2(c3ccccc3)CCC2)c1` | -37.42 |
| 36 | `Cn1cc(CNc2cnn(CCO)c2)c(-c2ccncc2)n1` | 14.3 |
| 37 | `N#Cc1cccc(CNc2cc(CO)ccc2Cl)c1` | 18.26 |
| 38 | `O=C(CCCc1cn[nH]c1)N1C[C@@H](CN2CCCCCC2)[C@@H](CO)C1` | -5.958 |
| 39 | `CCN1CCCN(c2ncccc2C(=O)N2CCCCC2)CC1` | -35.65 |
| 40 | `Nc1ncc(CN2CCC(CCC(=O)NC3CC3)CC2)cn1` | 2.53 |
| 41 | `CN(CC1CC1)S(=O)(=O)c1ccc(C(F)(F)F)cc1C#N` | -17.61 |
| 42 | `CN(Cc1n[nH]c(=O)n1CCc1ccccc1F)S(C)(=O)=O` | -32.11 |
| 43 | `CN1C(=O)C(c2cccnc2)CC12CCN(C(=O)c1ccc[nH]1)CC2` (stereo not drawn) | -35.57 |
| 44 | `[H][C@@]12CCCC[C@]1(O)CCN(C(C)=O)[C@H]2c1ccccc1` | -37.1 |
| 45 | `COCC1CC2(CCN(Cc3ccoc3)CC2)CN1C(C)C.O=C(O)C(F)(F)F.O=C(O)C(F)(F)F` (stereo not drawn) | 26.61 |
| 46 | `COc1cc(-c2n[nH]c(CN)n2)cc(OC)c1OC` | -32.93 |
| 47 | `CC(C)c1nnc2sc(CC3CCS(=O)(=O)CC3)nn12` | -7.065 |
| 48 | `COCc1c(Cl)cccc1NC(=O)CNC(=O)C(C)(C)C` | 5.004 |
| 49 | `O=c1cc(CN2CCCC2)nc2n1CCCN(Cc1ccco1)C2` | 3.575 |
| 50 | `COc1ccc(C(=O)Nc2n[nH]c(C3CCCO3)n2)cc1` (stereo not drawn) | -2.176 |
| 51 | `COc1cc(CN(C)C(=O)NCc2cccc3c2OCO3)ccc1SC` | -38.76 |
| 52 | `O=C(CN1CCc2ccccc2C1)NCc1cc2n(n1)CCCNC2` | -11.88 |
| 53 | `c1ccc(OC2CCCC2)c(CNC2CCc3ncnn3C2)c1` (stereo not drawn) | -13 |
| 54 | `O=C1CSC(c2ccc(O)c(Cl)c2)c2c(n(C3CCOCC3)[nH]c2=O)N1` (stereo not drawn) | 16.97 |
| 55 | `Cc1nc2c(c(N3CCN(Cc4ccco4)CC3)n1)CCNCC2` | -65.41 |
| 56 | `[H][C@@]12CN(S(=O)(=O)c3ccccc3)C[C@]1([H])OCC(=O)N2CCOC` | -8.017 |
| 57 | `COc1ccc(-n2c(CO)nc3ccccc32)cc1CO` | 9.534 |
| 58 | `O=C(NCc1ccccc1CN1CCC(O)CC1)Nc1ccccc1` | -38.22 |
| 59 | `CCS(=O)(=O)CCSc1ccc(Br)cc1` | -61.04 |
| 60 | `Cc1nc(N2CCC(C)CC2)ncc1-c1cc(O)nc(N2CCCC2)n1` | -29.85 |
| 61 | `O=C(CN1CCSCC1c1ccccc1)N1CCCC1` (stereo not drawn) | -6.521 |
| 62 | `O=C(O)CNc1cc(-c2cc(C3CC3)ncn2)c2cc[nH]c2n1` | -18.77 |
| 63 | `O=S(=O)(c1ccc2c(c1)OCCO2)N1CCC(OCc2ccccn2)C1` (stereo not drawn) | -15.82 |
| 64 | `CCC(C)[C@H](NC(=O)c1cc(Br)ccc1-n1cnnn1)C(=O)OC` (stereo partly drawn) | -9.958 |
| 65 | `Cn1c(=O)oc2ccc(NC(=O)N3CCSCC3)cc21` | -38.57 |
| 66 | `Nc1cc(-c2c[nH]nc2C2CCN(C(=O)C3CCCC3)C2)ccn1` (stereo not drawn) | 38.23 |
| 67 | `Cc1nc2c(N(CCC(N)=O)CCc3ccccc3)ncnc2o1` | -63.39 |
| 68 | `CNS(=O)(=O)CCNC(=O)c1coc(COc2ccc(F)cc2)n1` | -4.809 |
| 69 | `Cc1cc(C)c(C(=O)N(C)CCN(C)C(=O)OC(C)(C)C)[nH]1` | -12.13 |
| 70 | `Cn1c(NCC(=O)N2CCCC2)c(C#N)c(=O)n(C)c1=O` | -23.43 |
| 71 | `Cc1cnc(C(=O)N2CCc3c(nc(-c4ccncc4)[nH]c3=O)C2)cn1` | -30.28 |

Repeated from the top, 5 entries:

- CC(C)(O)CCc1ccc(C(=O)N2CCN(CC3CCCC3)CC2)cc1 | -12.31%
- CC(C)(C)CN1CCCC(O)(CN2CCc3[nH]ncc3C2)C1=O (stereo not drawn) | -25.03%
- COc1cc(C(=O)Nc2cn[nH]c2)ccc1C | 12.59%
- CCOc1ncccc1C(=O)NC1CC(=O)N(CC(F)(F)F)C1 (stereo not drawn) | -39.2%
- COC(=O)N1CCCCC1C(=O)N1CCN(c2cccnc2)CC1 (stereo not drawn) | -8.398%